{
  "source": "PubChem BioAssay AID2685",
  "about": "(National Center for Advancing Translational Sciences (NCATS), 2010)",
  "note": "The whole screen tested about 320,000 compounds, of which about 2,100 (0.66%) were called active. This list was built around the results that the source calls inconclusive (neither active nor inactive); the mix of calls is not that of the screen. Calls follow the shape of the dose curve; as a rule, active = well fitted inhibition curve with a large enough effect in the signal ratio, with a control signal flat (not every such curve was filed as active); inconclusive = small, poorly fitted or top-dose-only effect, or effect the other way, or a change in a side signal; inactive = flat fitted curve, though single readings scatter; the % refers to the signal ratio. Potencies beside an inconclusive call are fits to weak or partial responses and may not hold up. % is scaled to controls: 0 for no effect and ±100 for the full control effect; potency is read from the fitted curve at half-maximal effect.",
  "data": [
    {"experiment": "qHTS Assay for Lipid Storage Modulators in Drosophila S3 Cells", "conditions": "BODIPY lipid droplet fluorescence, 18-24 h, cells fed with added oleic acid; lipid storage change, negative = inhibition: at 46.1 µM (top of the series) unless noted", "method_in_brief": "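Laser-scanning cytometry quantifies lipid droplet accumulation (500–530 nm total intensity; droplet/cell object ratio) in oleic acid-fed (400 uM added) Drosophila S3 cells treated with a concentration series. 20 uM Triacsin C defined 100% inhibition.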", "values": [
      {"smiles": "Cc1ccc(OCC(=O)NCCCNC(=O)COc2ccc(C)cc2)cc1", "lipid storage change, negative = inhibition": "inconclusive: 19.6%"},
      {"smiles": "C=CCn1c(O)c2ccc(C(=O)N=NC(=O)c3ccc(F)cc3)cc2c1O", "lipid storage change, negative = inhibition": "inconclusive"},
      {"smiles": "CCOc1ccc(S(=O)(=O)NCCSc2ccccc2)cc1", "lipid storage change, negative = inhibition": "inconclusive: 31%"},
      {"smiles": "COc1ccc(/C=C/c2noc(-c3ccccc3OC(C)=O)n2)cc1", "lipid storage change, negative = inhibition": "inconclusive: 16.8%"},
      {"smiles": "NS(=O)(=O)c1cc(Cl)c(Cl)c(S(N)(=O)=O)c1", "lipid storage change, negative = inhibition": "inconclusive: -11.6%"},
      {"smiles": "COc1ccccc1/C=C/CN1CCC(Oc2ccc(C(=O)N3CCCCC3)cc2)CC1", "Potency": "inconclusive: 29.1 µM [activator, single point]"},
      {"smiles": "Cn1c2ccccc2c2cnn(CC(=O)Nc3ccc(F)cc3F)c(=O)c21", "lipid storage change, negative = inhibition": "inconclusive: 17.3%"},
      {"smiles": "COc1cccc(Nc2nc(-c3cccs3)nc3ccccc23)c1", "Potency": "inconclusive: 0.206 µM [activator, full curve, poor fit]"},
      {"smiles": "O=C(CCc1nnc(CCCCc2ccccc2)o1)NC1CCCC1", "lipid storage change, negative = inhibition": "inconclusive: -2.51%"},
      {"smiles": "c1ccc(OCCOCCN2CCc3ccccc3C2)cc1", "lipid storage change, negative = inhibition": "inconclusive: -4.29%"},
      {"smiles": "COc1cccc(/C=N/NC(=O)N/N=C/c2cccc(OC)c2O)c1O", "Potency": "inconclusive: 29.1 µM [falling, single point]"},
      {"smiles": "O=[N+]([O-])c1cc(/C=N/N2CCN(c3ccccc3)CC2)ccc1Cl", "lipid storage change, negative = inhibition": "inconclusive: 14%"},
      {"smiles": "COc1ccc(S(=O)(=O)N2CCOC2CNC(=O)C(=O)NCc2ccncc2)cc1OC", "note": "(centres undefined)", "lipid storage change, negative = inhibition": "inconclusive: -14.1%"},
      {"smiles": "O=C(O)C1CCCN1C(=O)Nc1ccc(Cl)cc1", "note": "(centres undefined)", "lipid storage change, negative = inhibition": "inconclusive: 6.17%"},
      {"smiles": "CSc1ccccc1NC(=O)CN(C)C(=O)C1CCN(C(=O)Nc2ccccc2)CC1", "lipid storage change, negative = inhibition": "inconclusive"},
      {"smiles": "CC(C)CNC(=O)NC(=O)CSc1nc2ccccc2n1CC(C)C", "outcome": "inactive [at 46.1 µM]"},
      {"smiles": "O=[N+]([O-])c1cccc(CN2C[C@@]34C=C[C@@H](C[C@@H]3S2(=O)=O)O4)c1", "Potency": "inconclusive: 18.4 µM [activator, partial curve]"},
      {"smiles": "CCn1c(O)c(C=NCc2ccccc2)sc1=S", "lipid storage change, negative = inhibition": "inconclusive: -0.865%"},
      {"smiles": "Cc1ccccc1OCC(=O)Nc1cccc(NC(=O)c2ccco2)c1", "lipid storage change, negative = inhibition": "inconclusive: -30.4%"},
      {"smiles": "COc1ccc(Cn2nnnc2CN2CCc3ccccc3C2)cc1", "Potency": "inconclusive: 23.1 µM [activator, single point]"},
      {"smiles": "COc1ccc2c(c1)OC13CCCCC1C2C(C(=O)c1ccccc1)C(=O)N3", "note": "(centres undefined)", "lipid storage change, negative = inhibition": "inconclusive: -2.94%"},
      {"smiles": "Cc1c(C(=O)N2CCN(C(=O)c3ccccc3)CC2)oc2ccc(F)cc12", "Potency": "active: 1.84 µM"},
      {"smiles": "NC(=O)NC(=O)CN1c2cccc3cccc(c23)S1(=O)=O", "Potency": "inconclusive: 20.6 µM [activator, single point]"},
      {"smiles": "Cc1ccc(Cl)cc1N1CCN(Cc2cc3c(cc2O)CCC3)CC1", "Potency": "inconclusive: 1.64 µM [activator, partial curve]"},
      {"smiles": "Cc1ccccc1NC(=O)COC(=O)c1ccc(S(=O)(=O)N2CCCC2)cc1", "lipid storage change, negative = inhibition": "inactive: 9.1%"},
      {"smiles": "CCCn1c(SCC(=O)NCc2ccc(Cl)cc2)n[nH]c1=O", "lipid storage change, negative = inhibition": "inconclusive: -22.7%"},
      {"smiles": "CCC(=O)NCCNC(=O)c1c(SC)nsc1SC", "lipid storage change, negative = inhibition": "inconclusive: 3.77%"},
      {"smiles": "CCCN(CCC)CCCNC(=O)C1c2cc(OC)c(OC)cc2C(=O)N(C)C1c1cccs1", "note": "(centres undefined)", "lipid storage change, negative = inhibition": "inconclusive: 1.08%"},
      {"smiles": "O=C(N/N=C/c1ccccc1O)c1cc[n+]([O-])cc1", "Potency": "inconclusive: 6.51 µM [falling, single point]"},
      {"smiles": "CC1CN(c2sc(S(C)(=O)=O)nc2S(=O)(=O)c2ccc(Cl)cc2)CC(C)O1", "note": "(centres undefined)", "lipid storage change, negative = inhibition": "inconclusive: -74.1%"},
      {"smiles": "O=[N+]([O-])c1cccnc1N1CCN(c2ccc(F)cc2)CC1", "lipid storage change, negative = inhibition": "inconclusive: -11.8%"},
      {"smiles": "COc1ccc([N+](=O)[O-])cc1NC(=O)Cc1noc2ccc(C)cc12", "lipid storage change, negative = inhibition": "inconclusive: -22%"},
      {"smiles": "O=C(c1ccc(Br)o1)N(Cc1ccccc1)Cc1ccccc1", "lipid storage change, negative = inhibition": "inconclusive: 28.2%"},
      {"smiles": "COC(=O)Nc1ccc(S(=O)(=O)Nc2cc(C(F)(F)F)c[nH]c2=O)cc1", "lipid storage change, negative = inhibition": "inconclusive: 0.831%"},
      {"smiles": "Cc1nn(-c2ccccc2)c(Cl)c1C(=O)NCC(=O)O", "lipid storage change, negative = inhibition": "inconclusive: -5.22%"},
      {"smiles": "CCCCn1c(-c2csc3ccccc23)n[nH]c1=S", "Potency": "inconclusive: 0.146 µM [falling, full curve, poor fit]"},
      {"smiles": "N#C/C(=N\\Nc1ccccc1Cl)C(=O)c1ccccc1", "lipid storage change, negative = inhibition": "inconclusive: -25.7%"},
      {"smiles": "c1ccc(-n2cc(CN3CCC(N4CCOCC4)CC3)c(-c3ccc4c(c3)OCO4)n2)cc1", "lipid storage change, negative = inhibition": "inactive: 13.6%"},
      {"smiles": "CC(=O)C1=C(O)C(=O)N(Cc2ccccc2)C1c1ccc(F)cc1", "note": "(centres undefined)", "lipid storage change, negative = inhibition": "inactive: 11.4%"}
    ]}
  ]
}
